In patent US20050130982A1, “Oral therapeutic or preventative drugs for pollakiuria and urinary incontinence and oral sleep inducers, containing tropolone derivatives” (Nippon Kayaku Kabushiki Kaisha, priority 2002, published 2005):
Some entries share one result that the patent states for a list of compounds.

Test: Measurement of bioavailability by oral administration in rats
Format: in vivo, rat
Details: 6.25 mg/kg oral vs intravenous, ratio of AUC
Procedure: The intravenous administration group and the oral administration group consisted of 3 rats each (6 week-old male SD-IGS strain (Japan Charles River Co.)).
Each test drug was dissolved in physiological saline or ultra-pure water and administered to the rats intravenously or orally at 6.25 mg/kg. The blood samples were collected periodically and the plasma were prepared by the routine procedures. After deproteinization, the concentration of each test drug was measured by the LC/ESI(+) SRM method (liquid chromatography/electrospray-ionization (+) selected reaction monitoring method) and the bioavailability was calculated as the ratio (percent) of AUC (area under the blood concentration-time curve) of the oral administration and AUC of the intra-venous administration.

Row | SMILES | Bioavailability (%) (listed as test drug 1, hydrochloride) | Bioavailability (%) (listed as test drug 2, hydrochloride)
1 | COc1cc(C(C)C)ccc(CN2CCN(c3ncccn3)CC2)c1=O.Cl [Test drug 1, 4-isopropyl-2-methoxy-7-[4-(2-pyrimidyl)piperazinomethyl]-2,4,6-cycloheptatrien-1-one 1 hydrochloride] | 30-60% | 
2 | CC(C)c1ccc(CN2CCN(c3ncccn3)CC2)c(=O)c(O)c1.Cl [Test drug 2, 2-hydroxy-4-isopropyl-7-[4-(2-pyrimidyl)piperazinomethyl]-2,4,6-cycloheptatrien-1-one 1 hydrochloride] |  | 30-60%
